Measured data: PubChem BioAssay AID1224826 (NIAID, 2016)
In all, the deposit lists about 17,000 reagents; shown is a part drawn at random. Over the whole deposit, about 1,110 (6.6%) were called active. 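Active means lowered or raised reporter signal; replicate intensities are raw and not normalised per plate.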 Further read-outs or replicates are left out here.

Aim: 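Knock-downs that raise or lower Tnf reporter signal after endotoxin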 (primary screen)
Cells: RAW264.7 G9 macrophages from mouse bearing reporters for p65 (GFP) and the Tnf promoter (mCherry)
Reagents: siRNA pool against mouse genes, 100 nM
Time to read-out: 16 h of LPS stimulation, after 2 days of siRNA transfection
Treatment: bacterial lipopolysaccharide (Salmonella minnesota R595), 10 ng/ml
Measured: 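Imaged Tnf reporter mCherry in nuclei, minus background, normalised per plate to the median and expressed as robust z-scores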
Direction: Tnf reporter robust z-score: higher = stronger Tnf promoter reporter signal after LPS
Rule for the call: 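a well counts as active at a score of -1.3 or below (Tlr4 knock-down control median) or above 3 (raised signal); controls and wells holding fewer than 50 cells are excluded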
Calls: active = Tnf reporter clearly lowered or raised; inactive = no clear change in Tnf reporter

Trim68 → Tnf reporter robust z-score = 0.89; fewer than 50 cells in well = enough cells in well; call = inactive
Ninj1 → Tnf reporter robust z-score = -0.64; fewer than 50 cells in well = enough cells in well; call = inactive
Or52j3 → Tnf reporter robust z-score = -0.03; fewer than 50 cells in well = enough cells in well; call = inactive
Il2rb → Tnf reporter robust z-score = -0.06; fewer than 50 cells in well = enough cells in well; call = inactive
Or8g24 → Tnf reporter robust z-score = -1.4; fewer than 50 cells in well = enough cells in well; call = active
Isyna1 → Tnf reporter robust z-score = 0.61; fewer than 50 cells in well = enough cells in well; call = inactive
Or52n2 → Tnf reporter robust z-score = -0.13; fewer than 50 cells in well = enough cells in well; call = inactive
Pkia → fewer than 50 cells in well = fewer than 50 cells per well; well left out of calls; call = inactive

Called active (from the list above):
Or8g24 → Tnf reporter robust z-score = -1.4; fewer than 50 cells in well = enough cells in well; call = active

More entries follow:
Cpa1 → Tnf reporter robust z-score = -0.98; fewer than 50 cells in well = enough cells in well; call = inactive
Dynlt3 → Tnf reporter robust z-score = -1.02; fewer than 50 cells in well = enough cells in well; call = inactive
Zfp14 → fewer than 50 cells in well = fewer than 50 cells per well; well left out of calls; call = inactive
Ptdss2 → Tnf reporter robust z-score = -0.71; fewer than 50 cells in well = enough cells in well; call = inactive
